At least one compound was matched to its structure with a doubt left.
Tested on: Hexobarbital sleeping time
Format: in vivo
Details: mice; Hexobarbital i.v.; effect = sleeping time 2.5 times longer than control
Protocol: (2) Narcosis potentiating effect
To mice having a body weight of 20-24 g Hexobarbital is administered intravenously in a dose of […]. The sleeping time of the treated and control animals is measured.

Row | Compound | ED50 (narcosis potentiating effect)
1 | COc1ccc(CC2CCCCC2=NOCC(C)CN2CCN(C)CC2)cc1 (centres unmarked) [Reference compound B, 1-[2'-methyl-3'-(4"-methyl-piperazinyl)-propoxyimino]-2-(p-methoxy-benzyl)-cyclohexane, reference compound] | inactive in a dose of 140 mg/kg
2 | CN1CCN(CCCON=C2CCCCC2Cc2ccc(Cl)cc2)CC1 (centres unmarked) [Reference compound D, 2-(p-chloro-benzyl)-1-[3'-(4"-methyl-piperazinyl)-propoxyimino]-cyclohexane, reference compound] | inactive in a dose of 320 mg/kg

From patent US4727074A, “2-(phenylmethylene)-1-(diaminoalkoxy) cycloalkanes and their pharmaceutical uses” (priority 1983, dated 1988)
